The text below walks through data of article PMC4066752.

By UniProt entry, the sequences of proteins in these tests, tags left out. Where a name states a change or a piece, a line headed by the entry shows the natural chain unless it says otherwise.
UniProt P01106: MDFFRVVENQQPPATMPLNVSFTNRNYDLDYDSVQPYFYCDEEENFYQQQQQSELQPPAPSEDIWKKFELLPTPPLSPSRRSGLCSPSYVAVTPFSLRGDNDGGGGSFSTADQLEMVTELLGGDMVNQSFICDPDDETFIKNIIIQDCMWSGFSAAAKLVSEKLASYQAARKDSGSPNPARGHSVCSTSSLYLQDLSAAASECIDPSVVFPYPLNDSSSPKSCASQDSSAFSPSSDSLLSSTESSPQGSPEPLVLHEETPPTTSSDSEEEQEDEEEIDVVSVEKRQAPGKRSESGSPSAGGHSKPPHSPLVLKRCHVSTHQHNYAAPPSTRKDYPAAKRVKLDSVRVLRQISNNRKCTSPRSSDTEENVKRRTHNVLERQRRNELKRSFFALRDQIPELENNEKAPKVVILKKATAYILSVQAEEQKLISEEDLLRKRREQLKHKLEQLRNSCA
UniProt Q9UBL3: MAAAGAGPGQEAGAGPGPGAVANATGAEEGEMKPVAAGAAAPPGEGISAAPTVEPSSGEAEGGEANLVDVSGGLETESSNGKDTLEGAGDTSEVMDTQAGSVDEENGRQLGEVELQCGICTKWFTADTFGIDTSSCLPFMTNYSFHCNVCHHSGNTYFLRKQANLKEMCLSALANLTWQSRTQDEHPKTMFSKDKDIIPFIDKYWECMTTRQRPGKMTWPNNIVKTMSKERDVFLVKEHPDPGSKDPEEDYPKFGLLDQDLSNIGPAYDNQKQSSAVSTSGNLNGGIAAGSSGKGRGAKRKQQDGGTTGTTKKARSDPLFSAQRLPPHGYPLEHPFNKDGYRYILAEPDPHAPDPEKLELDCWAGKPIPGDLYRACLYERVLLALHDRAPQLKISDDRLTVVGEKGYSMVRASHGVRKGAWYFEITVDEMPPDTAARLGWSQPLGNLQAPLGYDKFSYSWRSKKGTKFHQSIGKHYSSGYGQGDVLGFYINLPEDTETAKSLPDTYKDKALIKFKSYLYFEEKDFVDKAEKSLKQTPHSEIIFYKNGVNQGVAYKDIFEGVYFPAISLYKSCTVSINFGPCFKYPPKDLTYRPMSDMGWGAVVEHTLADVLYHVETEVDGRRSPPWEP
UniProt Q15291: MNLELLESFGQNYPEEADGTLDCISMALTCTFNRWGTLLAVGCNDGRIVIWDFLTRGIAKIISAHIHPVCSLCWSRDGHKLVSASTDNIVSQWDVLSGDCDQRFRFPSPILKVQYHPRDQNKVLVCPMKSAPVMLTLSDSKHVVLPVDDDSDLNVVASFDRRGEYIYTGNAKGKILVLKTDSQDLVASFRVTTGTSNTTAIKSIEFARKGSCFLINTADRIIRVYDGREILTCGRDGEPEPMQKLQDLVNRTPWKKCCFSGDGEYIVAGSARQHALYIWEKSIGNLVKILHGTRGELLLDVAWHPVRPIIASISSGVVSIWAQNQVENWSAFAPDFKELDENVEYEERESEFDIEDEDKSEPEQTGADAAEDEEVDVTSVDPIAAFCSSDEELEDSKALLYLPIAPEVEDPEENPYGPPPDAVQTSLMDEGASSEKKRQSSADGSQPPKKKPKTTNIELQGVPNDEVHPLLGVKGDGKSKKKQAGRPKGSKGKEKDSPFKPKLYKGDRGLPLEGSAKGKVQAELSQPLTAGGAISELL

These are yes or no findings as the source states them, for the method shown. Binding seen in cells or lysates may run through a third protein. For some assays here: Binding can be weak; no strength is given.

One assay deals with MYCΔ265-367 (UniProt P01106). Briefly: co-IP; HEK293 cells, transient expression of the respective MYC or ASH2L fragments; lysates; western blot.
A further assay has as its target GST-MYC(263-439) (UniProt P01106). Put plainly: pull-down; pull-down of WDR5 and RbBP5 with MYC fragments (Supplementary Figure S3A); source of WDR5 and RbBP5 not told.

“ASH2L (in HEK293 lysates, partner of the MYC fragments) (from UniProt Q9UBL3 1-628)”: the binding result with MYCΔ265-367 is “binds”. Take “RbBP5 (pull-down of Supplementary Figure S3A) (from UniProt Q15291 1-538)”: the binding entry with GST-MYC(263-439) was “no binding”.
